Data reported in publication PMC8235097.
These are yes or no findings as the source states them, for the method shown. Binding seen in cells or lysates may run through a third protein.

Amino acid sequences for entries named in this document (tags omitted). Residues count along the entry.
UniProt O75197, residues 32-1615: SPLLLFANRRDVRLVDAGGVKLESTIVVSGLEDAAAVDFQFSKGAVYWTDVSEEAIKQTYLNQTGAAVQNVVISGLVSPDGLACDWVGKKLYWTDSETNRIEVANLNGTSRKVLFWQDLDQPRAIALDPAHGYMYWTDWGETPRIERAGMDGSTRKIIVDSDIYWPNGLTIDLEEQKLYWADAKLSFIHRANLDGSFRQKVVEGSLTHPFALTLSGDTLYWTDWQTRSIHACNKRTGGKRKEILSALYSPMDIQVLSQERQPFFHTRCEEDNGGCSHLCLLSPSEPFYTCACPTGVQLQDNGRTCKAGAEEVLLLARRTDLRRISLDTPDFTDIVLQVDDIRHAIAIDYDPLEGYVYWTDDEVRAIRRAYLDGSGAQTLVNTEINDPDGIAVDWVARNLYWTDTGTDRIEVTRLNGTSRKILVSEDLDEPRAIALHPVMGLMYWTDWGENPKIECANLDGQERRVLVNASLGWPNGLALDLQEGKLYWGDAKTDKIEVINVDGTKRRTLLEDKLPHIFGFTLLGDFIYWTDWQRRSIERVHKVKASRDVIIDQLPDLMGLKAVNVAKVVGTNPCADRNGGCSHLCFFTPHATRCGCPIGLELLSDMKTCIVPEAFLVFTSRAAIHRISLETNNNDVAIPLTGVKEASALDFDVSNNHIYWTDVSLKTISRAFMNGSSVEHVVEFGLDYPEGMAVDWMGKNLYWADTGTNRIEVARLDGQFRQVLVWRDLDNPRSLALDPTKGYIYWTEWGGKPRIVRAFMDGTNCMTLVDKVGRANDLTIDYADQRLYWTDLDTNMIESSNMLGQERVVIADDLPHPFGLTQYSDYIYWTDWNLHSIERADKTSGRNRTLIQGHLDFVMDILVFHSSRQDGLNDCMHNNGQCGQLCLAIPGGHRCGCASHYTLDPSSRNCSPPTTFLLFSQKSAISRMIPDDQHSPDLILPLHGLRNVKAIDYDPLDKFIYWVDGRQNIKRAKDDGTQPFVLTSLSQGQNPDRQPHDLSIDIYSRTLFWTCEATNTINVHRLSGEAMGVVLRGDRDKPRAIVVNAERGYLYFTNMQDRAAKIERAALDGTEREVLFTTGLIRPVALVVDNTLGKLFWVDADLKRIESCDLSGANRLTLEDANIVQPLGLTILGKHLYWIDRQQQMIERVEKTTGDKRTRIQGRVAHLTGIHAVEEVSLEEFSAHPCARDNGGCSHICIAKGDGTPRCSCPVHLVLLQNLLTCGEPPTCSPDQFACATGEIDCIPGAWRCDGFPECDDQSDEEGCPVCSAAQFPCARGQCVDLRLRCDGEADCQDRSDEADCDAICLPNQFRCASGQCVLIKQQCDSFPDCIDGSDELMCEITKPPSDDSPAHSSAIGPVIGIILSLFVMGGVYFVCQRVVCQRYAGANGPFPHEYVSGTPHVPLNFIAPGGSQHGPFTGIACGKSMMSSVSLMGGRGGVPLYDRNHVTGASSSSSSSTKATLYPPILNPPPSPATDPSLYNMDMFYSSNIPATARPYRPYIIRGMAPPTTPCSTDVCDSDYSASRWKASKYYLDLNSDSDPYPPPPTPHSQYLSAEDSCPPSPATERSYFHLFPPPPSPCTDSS
UniProt Q6AYU4: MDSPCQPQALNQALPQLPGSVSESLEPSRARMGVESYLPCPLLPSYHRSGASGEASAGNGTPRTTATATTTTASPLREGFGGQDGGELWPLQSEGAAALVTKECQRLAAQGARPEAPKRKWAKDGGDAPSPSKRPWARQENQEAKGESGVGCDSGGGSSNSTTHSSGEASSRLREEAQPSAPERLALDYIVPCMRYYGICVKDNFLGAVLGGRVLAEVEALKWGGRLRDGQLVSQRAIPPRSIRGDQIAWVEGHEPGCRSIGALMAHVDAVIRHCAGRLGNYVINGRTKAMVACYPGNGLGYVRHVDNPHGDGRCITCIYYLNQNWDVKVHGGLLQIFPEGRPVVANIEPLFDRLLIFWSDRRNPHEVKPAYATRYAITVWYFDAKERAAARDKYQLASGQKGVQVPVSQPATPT
UniProt Q62630: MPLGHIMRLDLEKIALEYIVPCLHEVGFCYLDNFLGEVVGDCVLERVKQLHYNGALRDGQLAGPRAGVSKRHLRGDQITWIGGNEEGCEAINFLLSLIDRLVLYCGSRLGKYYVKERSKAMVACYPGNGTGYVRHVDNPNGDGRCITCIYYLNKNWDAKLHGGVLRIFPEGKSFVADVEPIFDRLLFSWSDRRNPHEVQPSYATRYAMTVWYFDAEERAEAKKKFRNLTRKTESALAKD

Molecular target: full-length human LRP5 with a C-terminal Myc tag (low-density lipoprotein receptor-related protein 5) (human) (UniProt O75197)
Test: co-IP; whole-cell lysates (RIPA buffer) of adenovirus-infected neonatal rat cardiomyocytes exposed to hypoxia; precipitated with anti-Myc antibody and protein A/G-agarose, washed with EBC buffer (20 mM Tris, 500 mM NaCl, 1 mM EDTA, 0.5% NP-40); western blot

| Substance | binding |
| --- | --- |
| endogenous PHD1 (HIF-prolyl hydroxylase 1) (from UniProt Q6AYU4 1-415) (enzyme) | no binding |
| endogenous PHD3 (HIF-prolyl hydroxylase 3) (from UniProt Q62630 1-239) (enzyme) | no binding |
